In PubChem BioAssay AID2685 (National Center for Advancing Translational Sciences (NCATS), 2010):
The list shows a part of the results. These are further read-outs of the screen, such as a control signal, another cell line or another target. No call is given for them. The list favours compounds with an active or inconclusive main result. Potencies come from curve fits of mixed quality, noted in brackets.

Assay: qHTS Assay for Lipid Storage Modulators in Drosophila S3 Cells;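 for cell number change: cells counted by Cell Tracker Red CMTPX staining in the red channel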
Conditions: BODIPY lipid droplet fluorescence, 18-24 h; for cell number change: measured here: cell count max response, cells fed with added oleic acid
Outline: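 Drosophila S3 cells got compounds at several concentrations plus oleic acid (400 uM solution). Laser-scanning cytometry with 488 nm excitation read lipid droplets at 500-530 nm and cells at 575-640 nm. Percent activity was relative to 20 uM Triacsin C.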

[1] = measured here: cell number channel AC50, cells fed with added oleic acid
[2] = measured here: lipid fluorescence (Fed channel) AC50, cells fed with added oleic acid

Structure (SMILES)	cell number change [%]	AC50 [1]	AC50 [2]
COc1ccc(OCCOC(=O)C(C)NS(=O)(=O)c2ccc(NC(C)=O)cc2)cc1 (configuration not stated)	-8.43		
Cc1cc(C(=O)NC2CCCc3c2cnn3-c2cc(F)cc(F)c2)nn1C (configuration not stated)	12.2	731 nM [falling, full curve]	580 nM [falling, full curve]
Cc1ccc(-c2c(C)sc3nc(CN4CCN(CC(=O)NC5CC5)CC4)[nH]c(=O)c23)cc1	-14.7		23.1 nM [falling, full curve, poor fit]
CCC(C)N(CC(=O)Nc1cccc(C)c1C)C(=O)CCl (configuration not stated)	86.7		
COc1ccc(CCNC(=O)C(=O)NCC2OCCCN2S(=O)(=O)c2cc(C)ccc2C)cc1 (configuration not stated)	-6.94		
Cc1oc(C(=O)Nc2ccc(C(=O)O)cc2)cc1COc1ccccc1	19.2		
O=C(Cc1ccccc1)NN1C(=O)C2C3C=CC(C3)[C@@H]2C1=O (some centres not stated)		920 nM [rising, partial curve]	
CC(C)N1C(=O)CC(Nc2cccc3cccc(N)c23)C1=O (configuration not stated)	37.8		
Cc1nn(C)c(Cl)c1/C=N/OC(=O)c1ccccc1	-40.7		
COc1ccc(NC(=O)CS(=O)CC(=O)Nc2cccc3cccnc23)cc1 (configuration not stated)	23.1		2590 nM [rising, full curve]
CS(=O)(=O)NCCNc1ncc(C(F)(F)F)cc1Cl	38.4	3260 nM [rising, full curve]	
O=C(NCc1cccs1)c1cccnc1C(=O)O	-36.1	58 nM [falling, full curve, poor fit]	29100 nM [falling, single point]
Cc1ccc(Cn2ccc(-c3cnc(-c4ccccc4)s3)n2)cc1	-68.4	1840 nM [rising, partial curve]	2310 nM [rising, partial curve]
COc1ccc(Cl)cc1NC(=O)C/C(C)=N/NC(=O)C(=O)NCc1ccccc1	-26.3		
CC(C)OC(=O)C1=C2SCC(=O)N2C(N)=C(C#N)C1	-50.7	23100 nM [falling, single point]	
COC(=O)c1sc(NC(=O)COc2cccc3ccccc23)nc1C	-28.8		5800 nM [falling, full curve, poor fit]
Cc1ccc(NC(=O)CCN2CCC(Cc3ccccc3)CC2)cc1	-3.65		
c1ccc(N=P(N2CCOCC2)(N2CCOCC2)N2CCOCC2)cc1	31.6	29100 nM [rising, single point]	
O=C(CSc1nc(C(F)(F)F)cc(=O)[nH]1)N1CCCCCC1	2.91		9200 nM [falling, partial curve, poor fit]

Structure (SMILES)	cell number change [%]	AC50 [1]	AC50 [2]
CCN(CC)CCNS(=O)(=O)c1ccc(OC)c(Br)c1	-17.6	820 nM [falling, full curve, poor fit]	20600 nM [falling, partial curve]
COc1cccc(NC(=O)CSC2=C(C#N)C(c3ccco3)C3=C(CCCC3=O)N2)c1 (configuration not stated)	-13.5		5.8 nM [rising, full curve, poor fit]
O=[N+]([O-])c1cccc(NC(=S)Nc2nc(-c3ccccc3Cl)cs2)c1		820 nM [falling, full curve, poor fit]	
CCCCNc1oc(-c2cccs2)nc1S(=O)(=O)c1ccccc1	-12.7		2910 nM [rising, partial curve]
Cc1ccccc1OCC(=O)Nc1cccc(S(=O)(=O)NC2=NCCCCC2)c1	41.3	7310 nM [rising, single point]	73.1 nM [rising, full curve, poor fit]
COc1ccc(Cl)cc1-c1nc(SCC(=O)NC(C)(C)C)n[nH]1	-48.2		29100 nM [falling, partial curve, poor fit]
Cc1ccc(NC(=O)N(Cc2cc3cc(C)cc(C)c3[nH]c2=O)CC2COCCO2)cc1 (configuration not stated)	-8.16	2910 nM [rising, single point]	7310 nM [rising, partial curve]
Cc1c(C(=O)N2CCN(c3ccc([N+](=O)[O-])cc3)CC2)sc2ncn(CC(=O)N3CCOCC3)c(=O)c12	3.81		5.17 nM [falling, full curve, poor fit]
Cc1ccc(S(=O)(=O)N2CCOC2CNC(=O)C(=O)NCc2ccc(Cl)cc2)cc1 (configuration not stated)	21.1		29100 nM [rising, single point]
CS(=O)(=O)c1cccc(-c2nnc(NC(=O)c3ccc(S(=O)(=O)N4CCCC4)cc3)o2)c1	6.37		6510 nM [falling, single point]
CN(C)S(=O)(=O)n1cc(/C=C(\NC(=O)c2ccccc2F)C(=O)N2CCCC2)c2ccccc21			6510 nM [rising, single point]
Cc1cc(NC(=O)CCC(=O)N(c2ccccc2)C2(C(=O)NC3CCCCC3)CCCC2)no1	0.484		
O=c1n(Cc2ccccc2)nc2n1-c1ccccc1SC2	17.9		3260 nM [rising, full curve, poor fit]
CC(=O)c1c(C)[nH]c(C(=O)NCCC2=CCCCC2)c1C	-11.3		580 nM [rising, single point]
CCc1nc(C)cn1S(=O)(=O)c1cc(C)c(OC)c(C)c1C	123	1160 nM [rising, partial curve]	2590 nM [rising, partial curve]
COc1ccc(C)cc1N(CC(=O)NCCSCc1ccco1)S(=O)(=O)c1ccc(C)cc1	-9.4		366 nM [rising, full curve]
CCOC(=O)c1sc(NC(=O)COc2ncnc3ccccc23)c(C(=O)OCC)c1C	-33.3	7310 nM [falling, partial curve, poor fit]	651 nM [falling, single point]
Cc1ccc(S(=O)(=O)N2CCC3(CC2)CC(=O)c2ccccc2O3)cc1	-11.9		2590 nM [falling, single point]
COC(=O)Cn1cc(C(=O)c2ccco2)c2ccccc21	4.34		580 nM [falling, single point]

3 entries from above, set out differently.
Structure (SMILES) | cell number change [%] | AC50 [1] | AC50 [2]
Cc1ccc(S(=O)(=O)N2CCOC2CNC(=O)C(=O)NCc2ccc(Cl)cc2)cc1 (configuration not stated) | 21.1 |  | 29100 nM [rising, single point]
CS(=O)(=O)c1cccc(-c2nnc(NC(=O)c3ccc(S(=O)(=O)N4CCCC4)cc3)o2)c1 | 6.37 |  | 6510 nM [falling, single point]
CN(C)S(=O)(=O)n1cc(/C=C(\NC(=O)c2ccccc2F)C(=O)N2CCCC2)c2ccccc21 |  |  | 6510 nM [rising, single point]
